The text below walks through data of the supplement of paper PMC12067093, “Discovery and optimisation of a covalent ligand for TRIM25 and its application to targeted protein ubiquitination” (Chemical Science, 2025).

Amino acid sequences for entries named in this document (tags omitted). A change or cut given only in a name is not applied to a line headed by its entry.
UniProt Q2M2I8: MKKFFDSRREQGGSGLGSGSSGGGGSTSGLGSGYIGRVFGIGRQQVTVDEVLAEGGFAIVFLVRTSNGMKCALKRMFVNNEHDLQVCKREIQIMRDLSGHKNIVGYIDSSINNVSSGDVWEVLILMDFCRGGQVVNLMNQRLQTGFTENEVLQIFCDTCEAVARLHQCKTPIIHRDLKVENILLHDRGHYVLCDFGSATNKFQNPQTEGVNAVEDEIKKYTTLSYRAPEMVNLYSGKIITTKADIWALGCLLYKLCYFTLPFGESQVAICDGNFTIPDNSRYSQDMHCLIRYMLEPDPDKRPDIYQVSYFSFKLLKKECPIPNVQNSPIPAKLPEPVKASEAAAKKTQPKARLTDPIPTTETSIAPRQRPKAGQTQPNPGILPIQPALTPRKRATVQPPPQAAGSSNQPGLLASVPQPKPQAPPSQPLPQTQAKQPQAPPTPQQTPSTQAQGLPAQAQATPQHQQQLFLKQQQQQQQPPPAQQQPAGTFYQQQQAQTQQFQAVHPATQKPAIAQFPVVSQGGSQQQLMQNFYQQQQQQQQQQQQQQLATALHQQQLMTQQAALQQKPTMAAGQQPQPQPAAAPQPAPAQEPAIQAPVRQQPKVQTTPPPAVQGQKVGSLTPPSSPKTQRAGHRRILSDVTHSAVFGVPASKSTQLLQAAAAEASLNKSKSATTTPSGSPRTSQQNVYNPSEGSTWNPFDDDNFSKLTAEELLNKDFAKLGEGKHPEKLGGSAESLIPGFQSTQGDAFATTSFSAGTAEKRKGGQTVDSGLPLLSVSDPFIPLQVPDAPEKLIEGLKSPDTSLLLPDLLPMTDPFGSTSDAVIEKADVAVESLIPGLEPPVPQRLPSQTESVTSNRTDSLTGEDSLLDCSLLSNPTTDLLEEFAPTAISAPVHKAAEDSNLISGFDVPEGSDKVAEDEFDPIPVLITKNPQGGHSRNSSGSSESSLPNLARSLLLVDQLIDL
UniProt Q9BR61: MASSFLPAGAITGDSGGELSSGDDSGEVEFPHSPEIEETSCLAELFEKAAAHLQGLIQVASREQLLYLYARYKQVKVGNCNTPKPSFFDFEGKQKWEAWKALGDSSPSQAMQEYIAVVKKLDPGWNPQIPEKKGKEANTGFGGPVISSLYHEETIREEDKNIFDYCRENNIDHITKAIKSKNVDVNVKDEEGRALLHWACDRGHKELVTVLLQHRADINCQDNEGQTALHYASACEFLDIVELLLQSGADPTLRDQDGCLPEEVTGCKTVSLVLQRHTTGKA
UniProt Q9H3P7: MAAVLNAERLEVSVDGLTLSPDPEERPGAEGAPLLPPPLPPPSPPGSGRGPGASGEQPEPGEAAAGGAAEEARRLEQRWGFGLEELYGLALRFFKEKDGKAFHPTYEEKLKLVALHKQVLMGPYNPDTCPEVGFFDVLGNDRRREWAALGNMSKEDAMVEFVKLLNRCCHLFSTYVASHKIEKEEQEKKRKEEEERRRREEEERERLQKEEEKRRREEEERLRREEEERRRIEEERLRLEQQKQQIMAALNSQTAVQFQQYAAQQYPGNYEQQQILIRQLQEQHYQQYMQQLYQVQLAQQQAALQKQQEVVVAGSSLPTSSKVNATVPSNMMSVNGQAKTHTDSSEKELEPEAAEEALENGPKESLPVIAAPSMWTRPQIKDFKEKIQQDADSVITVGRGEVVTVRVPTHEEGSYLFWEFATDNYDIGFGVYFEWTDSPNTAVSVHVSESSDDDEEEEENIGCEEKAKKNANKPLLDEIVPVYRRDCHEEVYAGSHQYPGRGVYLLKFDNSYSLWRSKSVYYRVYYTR
UniProt Q9UG63: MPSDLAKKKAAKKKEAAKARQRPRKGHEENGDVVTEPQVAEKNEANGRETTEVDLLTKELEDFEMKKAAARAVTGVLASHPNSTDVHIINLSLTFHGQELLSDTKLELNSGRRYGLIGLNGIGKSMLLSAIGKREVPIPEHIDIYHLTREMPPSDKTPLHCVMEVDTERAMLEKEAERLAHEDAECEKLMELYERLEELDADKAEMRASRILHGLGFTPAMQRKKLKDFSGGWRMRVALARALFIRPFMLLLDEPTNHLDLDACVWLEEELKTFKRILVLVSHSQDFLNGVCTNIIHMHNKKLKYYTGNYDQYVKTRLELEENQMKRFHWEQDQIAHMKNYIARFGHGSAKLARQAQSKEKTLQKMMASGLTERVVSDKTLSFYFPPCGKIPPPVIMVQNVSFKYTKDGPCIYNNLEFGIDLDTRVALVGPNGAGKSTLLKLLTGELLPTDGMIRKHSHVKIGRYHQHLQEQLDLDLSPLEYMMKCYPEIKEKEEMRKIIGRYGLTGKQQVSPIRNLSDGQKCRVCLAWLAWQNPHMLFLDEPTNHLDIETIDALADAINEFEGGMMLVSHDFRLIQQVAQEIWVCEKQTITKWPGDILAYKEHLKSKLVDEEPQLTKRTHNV
UniProt Q9UKV3: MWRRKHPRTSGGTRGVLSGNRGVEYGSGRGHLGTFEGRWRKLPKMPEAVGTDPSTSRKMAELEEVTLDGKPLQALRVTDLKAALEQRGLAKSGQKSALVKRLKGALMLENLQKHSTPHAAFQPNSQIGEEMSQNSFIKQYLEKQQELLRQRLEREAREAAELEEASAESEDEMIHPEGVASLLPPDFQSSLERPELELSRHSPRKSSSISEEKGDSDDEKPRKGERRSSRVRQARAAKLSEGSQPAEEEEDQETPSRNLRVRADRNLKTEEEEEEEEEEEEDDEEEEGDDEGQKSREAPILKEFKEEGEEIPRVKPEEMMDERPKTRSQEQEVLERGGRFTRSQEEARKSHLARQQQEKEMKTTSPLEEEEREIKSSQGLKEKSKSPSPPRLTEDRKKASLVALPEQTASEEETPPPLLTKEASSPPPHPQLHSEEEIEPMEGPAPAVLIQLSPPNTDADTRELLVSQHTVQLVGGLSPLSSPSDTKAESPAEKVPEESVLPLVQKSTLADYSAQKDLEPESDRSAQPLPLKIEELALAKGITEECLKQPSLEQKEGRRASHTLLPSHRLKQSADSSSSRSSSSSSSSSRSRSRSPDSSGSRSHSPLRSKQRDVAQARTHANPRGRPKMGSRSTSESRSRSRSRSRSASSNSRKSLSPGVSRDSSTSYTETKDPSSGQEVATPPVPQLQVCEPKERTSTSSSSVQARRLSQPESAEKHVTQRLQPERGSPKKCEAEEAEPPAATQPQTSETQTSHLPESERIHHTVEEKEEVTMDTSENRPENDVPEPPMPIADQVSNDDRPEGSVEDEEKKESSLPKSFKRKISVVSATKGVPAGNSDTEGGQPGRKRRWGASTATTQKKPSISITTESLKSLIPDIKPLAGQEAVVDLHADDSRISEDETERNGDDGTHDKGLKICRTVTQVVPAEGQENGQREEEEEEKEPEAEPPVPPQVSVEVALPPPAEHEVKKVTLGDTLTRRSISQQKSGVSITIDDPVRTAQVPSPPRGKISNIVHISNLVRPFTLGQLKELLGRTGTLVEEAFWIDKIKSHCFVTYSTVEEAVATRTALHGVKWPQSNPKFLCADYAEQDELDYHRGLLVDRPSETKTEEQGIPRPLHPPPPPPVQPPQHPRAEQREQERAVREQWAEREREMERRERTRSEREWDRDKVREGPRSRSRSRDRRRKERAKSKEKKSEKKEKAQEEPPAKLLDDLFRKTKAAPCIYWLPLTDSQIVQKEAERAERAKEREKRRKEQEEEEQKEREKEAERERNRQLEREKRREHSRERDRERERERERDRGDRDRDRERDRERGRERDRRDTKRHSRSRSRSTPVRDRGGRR
UniProt Q12979: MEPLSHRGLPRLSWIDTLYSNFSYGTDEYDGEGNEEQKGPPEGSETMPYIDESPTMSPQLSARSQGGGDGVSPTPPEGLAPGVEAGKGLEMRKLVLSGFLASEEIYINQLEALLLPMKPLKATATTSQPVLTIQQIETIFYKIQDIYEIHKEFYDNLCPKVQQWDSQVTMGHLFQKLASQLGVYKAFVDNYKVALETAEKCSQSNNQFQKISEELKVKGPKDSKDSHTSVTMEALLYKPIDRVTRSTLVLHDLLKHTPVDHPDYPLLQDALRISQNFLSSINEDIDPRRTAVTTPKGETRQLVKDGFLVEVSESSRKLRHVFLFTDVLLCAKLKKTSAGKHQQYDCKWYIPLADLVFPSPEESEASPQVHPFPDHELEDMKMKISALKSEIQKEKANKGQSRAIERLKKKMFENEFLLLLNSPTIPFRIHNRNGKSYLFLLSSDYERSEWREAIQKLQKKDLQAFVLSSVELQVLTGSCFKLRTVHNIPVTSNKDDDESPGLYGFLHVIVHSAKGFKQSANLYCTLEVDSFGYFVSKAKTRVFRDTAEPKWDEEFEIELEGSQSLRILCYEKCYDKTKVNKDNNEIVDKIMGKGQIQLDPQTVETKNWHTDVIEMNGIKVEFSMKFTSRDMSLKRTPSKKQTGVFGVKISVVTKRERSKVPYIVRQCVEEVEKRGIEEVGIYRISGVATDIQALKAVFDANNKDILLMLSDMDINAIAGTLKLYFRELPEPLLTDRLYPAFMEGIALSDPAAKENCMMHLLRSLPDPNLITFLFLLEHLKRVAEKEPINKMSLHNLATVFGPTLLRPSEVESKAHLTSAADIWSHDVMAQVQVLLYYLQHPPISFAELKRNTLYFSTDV
UniProt Q9NUJ1: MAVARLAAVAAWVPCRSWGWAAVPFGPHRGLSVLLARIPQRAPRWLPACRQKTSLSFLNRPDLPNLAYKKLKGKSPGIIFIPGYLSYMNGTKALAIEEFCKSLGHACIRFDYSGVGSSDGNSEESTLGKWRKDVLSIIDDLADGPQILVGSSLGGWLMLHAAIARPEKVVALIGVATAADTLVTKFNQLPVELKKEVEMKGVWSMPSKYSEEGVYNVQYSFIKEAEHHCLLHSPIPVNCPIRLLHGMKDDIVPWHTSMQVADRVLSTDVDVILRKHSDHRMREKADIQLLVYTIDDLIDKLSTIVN
UniProt P42765: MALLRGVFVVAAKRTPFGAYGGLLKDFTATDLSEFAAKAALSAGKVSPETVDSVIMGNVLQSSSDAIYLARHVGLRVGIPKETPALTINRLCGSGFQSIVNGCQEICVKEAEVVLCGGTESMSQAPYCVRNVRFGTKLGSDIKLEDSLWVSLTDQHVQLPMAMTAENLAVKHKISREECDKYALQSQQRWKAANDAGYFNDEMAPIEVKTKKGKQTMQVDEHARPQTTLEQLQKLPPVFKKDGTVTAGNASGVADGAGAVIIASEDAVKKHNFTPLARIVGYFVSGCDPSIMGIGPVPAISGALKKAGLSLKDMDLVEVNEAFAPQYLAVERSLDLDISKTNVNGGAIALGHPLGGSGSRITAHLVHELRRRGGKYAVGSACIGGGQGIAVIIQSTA

The list shows a part of the results.
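Note: competitive chemoproteomic profiling in live THP-1 cells with an iodoacetamide desthiobiotin (IA-DTB) probe, comparing probe-labelled peptide intensities in compound-treated cells against DMSO-treated controls.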

Compound in the experiment: CC1Cc2ccccc2N1C(=O)C1CCCN(C1)C(=O)CCl (mixture of isomers) [TRIM25 ligand 11 (diastereomer mixture)]
Put plainly: probe-labelled cysteine peptide fold change vs DMSO (competition) (log2 fold change); higher = less target engagement (more negative = stronger competition). Conditions: 50 µM; THP-1; incubation time: 4 h.
With “AAK1_Q2M2I8_193_GHYVLCDFGSATNK (UniProt Q2M2I8)”, the “probe-labelled cysteine peptide fold change” value was determined as 0.121. To “ACBD6_Q9BR61_200_ALLHWACDR (UniProt Q9BR61)” belongs -0.0101; to “AARS_P49588_723_VVSIGVPVSELLDDPSGPAGSLTSVEFCGGTHLR (UniProt P49588)”, 0.00801.

In the case of “ACBD3_Q9H3P7_487_RDCHEEVYAGSHQYPGR (UniProt Q9H3P7)”, the “probe-labelled cysteine peptide fold change” value was 0.0513. To “ABCE1_P61221_227_FACAVVCIQK (UniProt P61221)” belongs 0.211. To “ABCF2_Q9UG63_388_TLSFYFPPCGK (UniProt Q9UG63)” belongs 0.0914. To “ACIN1_Q9UKV3_1052_SHCFVTYSTVEEAVATR (UniProt Q9UKV3)” belongs 0.0352; to “ACACA_Q13085_1769_RVSALNSVHCEHVEDEGESR (UniProt Q13085)”, 0.415; to “AARS_P49588_947_NVGCLQEALQLATSFAQLR (UniProt P49588)”, 0.121. “AARS_P49588_533_TCFYAEQGGQIYDEGYLVK (UniProt P49588)”: the “probe-labelled cysteine peptide fold change” value was -0.124.

For the target “ACACA_Q13085_378_DCSVQR (UniProt Q13085)”, the “probe-labelled cysteine peptide fold change” value amounted to 0.5. To “ABR_Q12979_756_ENCMMHLLR (UniProt Q12979)” belongs 0.00476. To “AARS_P49588_525_MFVEEVSTGQECGVVLDK (UniProt P49588)” belongs -0.174; to “ACBD3_Q9H3P7_129_QVLMGPYNPDTCPEVGFFDVLGNDR (UniProt Q9H3P7)”, -0.116; to “ACAD9_Q9H845_507_TVDLGLTGNHGVVHPSLADSANKFEENTYCFGR (UniProt Q9H845)”, -0.0473. To “ABHD10_Q9NUJ1_100_ALAIEEFCK (UniProt Q9NUJ1)” belongs 0.0939; to “ABCE1_P61221_201_TQAIVCQQLDLTHLK (UniProt P61221)”, -0.0454. As to “ACAA2_P42765_116+128_EAEVVLCGGTESMSQAPYCVR (UniProt P42765)”, the “probe-labelled cysteine peptide fold change” value is -0.126.

As for “ACBD6_Q9BR61_80_VGNCNTPKPSFFDFEGK (UniProt Q9BR61)”, the “probe-labelled cysteine peptide fold change” value is -0.0535.
